# Results published in patent US5460942A, “The catalytic moiety of the glucose-6-phosphatase system: the gene and protein and related mutations” (The United States of America as represented by the …, priority 1993, dated 1995).
# B1: pSVLmG-6-Pase-Transfacted COS: recombinant murine G-6-Pase in microsomes of COS-1 cells transfected with pSVLmG-6-Pase (protein, UniProt P35576 1-357, looked up)
# Glucose-6-phosphatase …: MEEGMNILHDFGIQSTRYLQVNYQDSQDWFILVSVIADLRNAFYVLFPIWFHLKETVGINLLWVAVVGDWFNLVFKWILFGQRPYWWVLDTDYYSNSSVPIIKQFPVTCETGPGSPSGHAMGAAGVYYVMVTSTLAIFRGKKKPTYGFRCLNVILWLGFWAVQLNVCLSRIYLAAHFPHQVVAGVLSGIAVAETFSHIRGIYNASLRKYCLITIFLFGFALGFYLLLKGLGVDLLWTLEKAKRWCERPEWVHLDTTPFASLFKNLGTLLGLGLALNSSMYRKSCKGELSKLLPFRFACIVASLVLLHLFDSLKPPSQVELIFYILSFCKSATVPFASVSLIPYCLARILGQTHKKSL
# modifications: in COS-1 microsomes
# notes: recombinant murine G-6-Pase in microsomes of COS-1 cells transfected with pSVLmG-6-Pase
# B2: phG-6-Pase-1-COS: recombinant human G-6-Pase in microsomes of COS-1 cells transiently transfected with phG-6-Pase-1 cDNA (protein, UniProt P35575 1-357, looked up)
# Glucose-6-phosphatase …: MEEGMNVLHDFGIQSTHYLQVNYQDSQDWFILVSVIADLRNAFYVLFPIWFHLQEAVGIKLLWVAVIGDWLNLVFKWILFGQRPYWWVLDTDYYSNTSVPLIKQFPVTCETGPGSPSGHAMGTAGVYYVMVTSTLSIFQGKIKPTYRFRCLNVILWLGFWAVQLNVCLSRIYLAAHFPHQVVAGVLSGIAVAETFSHIHSIYNASLKKYFLITFFLFSFAIGFYLLLKGLGVDLLWTLEKAQRWCEQPEWVHIDTTPFASLLKNLGTLFGLGLALNSSMYRESCKGKLSKWLPFRLSSIVASLVLLHVFDSLKPPSQVELVFYVLSFCKSAVVPLASVSVIPYCLAQVLGQPHKKSL
# modifications: in COS-1 microsomes
# notes: recombinant human G-6-Pase in microsomes of COS-1 cells transiently transfected with phG-6-Pase-1 cDNA
# Experiment: Latency: mannose-6-P phosphohydrolysis in intact versus detergent-disrupted microsomes
# Type: biochemical
Molecule,"Latency (mannose-6-P (5 mM) hydrolysis, (1-intact/disrupted) × 100, murine study)","Latency (mannose-6-P phosphohydrolysis, (1-I/D) × 100, human study)","Latency (mannose-6-P phosphohydrolysis, (1-I/D) × 100, human study, listed as phG-6-Pase-1-transfected COS-1 cells)"
B1,50%,,
B2,,28.2%,28%
